Laboratory results reported in patent publication US20220154192A1, “SYSTEM AND METHOD FOR LIGHT-REGULATED OLIGOMERIZATION AND PHASE SEPARATION OF FOLDED DOMAINS AND RNA GRANULE-ASSOCIATED PROTEIN DOMAINS FOR DRUG- BASED SCREENING APPLICATIONS” (The Trustees of Princeton University, priority 2019, published 2022).
Some results were stated once for a whole list of compounds, not compound by compound.

Tested on: stress granule formation in G3BP KO U2OS cells
Experiment: G3BP rescue / rescue competition of stress granule formation in G3BP KO U2OS cells
Format: cell-based, human
Procedure: For G3BP rescue competition experiments, an identical arrayed lentivirus approach was used as described in Phase diagram data collection (i.e. 2-60 μL G3BPmCherry and 2-60 μL mGFP-ORF, arrayed 4-wells by 4-wells for 16-wells total of a 96-well plate). G3BP KO cells were plated into lentivirus then combined and passaged 72-hours later.
Live cell confocal microscopy was performed on Day 5 post-transduction. For each condition (GFP-tagged protein of interest), 4 separate experiments (each experiment=1-well/arsenite treatment) were performed on three separate days with numerous technical replicates (fields of view). Live confocal imaging was performed 1-2 hours following arsenite treatment. mCherry and mGFP concentrations were determined similarly as for phase diagrams and manual scoring of stress granule absence or presence was performed. Similar protocols were used to assess rescue in the absence of competition.
The concentration of each cell was determined via manual image segmentation as previously described and absence or presence of stress granules was annotated. […]
For each experiment, the concentration of the protein of interest was determined for each cell, and the presence of stress granules was categorized. […] Specifically, the probability density was calculated by binning the concentration distribution using a square root number rule. […]

FXR1: dimeric RBP that stably associates with UBAP2L
overexpression level sufficient for formation of polyA+ SGs in the absence of G3BP: < 1 µM
